# Primary screen of a compound library

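Viability assay of Plasmodium falciparum sporozoites; the read-out is not stated. The concentration is filed as 10 mM, unlikely as a test dose, so the dose is not known. Higher reads as lower viability (inferred: compounds with an IC50 in retests scored well above the rest). Strong results were mostly tested again. Of about 34,000 compounds tested this way, about 280 (0.84%) reached 50% or more in at least one test.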

Each number is a percent effect as filed.
How 0% and 100% were set is not recorded. Most values in the screen are low, and negative values occur.
The compounds are a random part of those screened.
Two or more numbers in one place are separate tests of the same structure; such repeats can differ widely.

With CN(C)CCn1c2c(ccc1=O)CCN(Cc1ccncc1)CC2 the screen gave 6.25%.
With COc1ccc(C(O)CN2CC(n3nc(C)cc3C)C2)cc1 (centres undefined) the screen gave 3.86%.
With O=C1NC2(CCN(C(=O)CN3CCOCC3)CC2)Nc2ccc(Cl)cc21 the screen gave -6.276%.
With CC(C)CS(=O)(=O)CC(=O)NC(C)c1nnc2n1CCC2 (centres undefined) the screen gave -3.375%.
With COc1cc(C)nc(N2CCN(C(=O)c3ccc(Cl)o3)CC2)n1 the screen gave -23.68%.
With Cc1nc(C2CCCN2C(=O)c2ccc(N(C)C)nn2)no1 (centres undefined) the screen gave 10.46%.
With CCc1ccc(S(=O)(=O)NCC2CCN(c3cnccn3)CC2)s1 the screen gave 6.356%.
With [H][C@]12CC[C@@]3(N=C(C)N(CC(C)C)C3=O)[C@@]1([H])CN(S(=O)(=O)CC(C)C)C2 the screen gave -1.371%.
With Cc1cc(C(=O)N2CCCC(n3cncn3)C2)c(C)n1CC1CC1 (centres undefined) the screen gave 11.07%.
With Cc1cc(N2CCCC2c2cnccn2)ncn1 (centres undefined) the screen gave -8.886%.
With O=C(O)C(F)(F)F.c1ccc(-c2ccc3nc(C4CCN(CC5CC5)CC4)nn3c2)cc1 the screen gave -8.7%.
With O=C(Nc1ccccc1)N1CCc2nc(C(=O)N3CCCC3)sc2CC1 the screen gave 42.14% & 56.3% & 42.63%.
With O=C(O)C(F)(F)F.[H][C@@]12CCN(Cc3ccco3)C[C@]1(C(=O)NC(C)C)CCO2 the screen gave 18.72%.
With Cc1nn(CCn2ccnc2-c2cc3n(n2)CCCNC3)c(C)c1Cl the screen gave 7.511%.
With CCN(CC)C(=O)c1ccc(NC(=O)CNc2ccc(Br)cc2F)cc1 the screen gave -2.142%.
With O=C(O)C(F)(F)F.c1cnc(N2Cc3nccn3CC(COc3cccnc3)C2)nc1 (centres undefined) the screen gave 15.85%.
With Cc1cccc(CN2CCc3[nH]nc(C(=O)N(C)C)c3C2)n1.O=C(O)C(F)(F)F the screen gave 7.186%.
With O=S(=O)(c1ccccc1)N1CCCN(CCCn2ccnc2)CC1 the screen gave 12%.
With O=C1CC2(CCN(c3nncs3)C2)CN1c1cccc(F)c1 (centres undefined) the screen gave 8.158%.
With Cc1occc1C(=O)N1CCn2c(COCC3CC3)cnc2C1C (centres undefined) the screen gave -12.17%.
With Cc1ccnc(NC(=O)C2(n3cnnn3)CCCCC2)c1 the screen gave -7.357%.
With CN(Cc1ccncc1)C1COC2(CCN(Cc3ccco3)CC2)C1.O=C(O)C(F)(F)F.O=C(O)C(F)(F)F.O=C(O)C(F)(F)F (centres undefined) the screen gave -4.623%.
With COCCOc1ccc(Cl)c(C(=O)N2CCN(CCO)CC2)n1 the screen gave -4.489%.
With CN1CC(=O)N(c2ccsc2)CC12CCN(C(=O)c1ccc[nH]1)C2 (centres undefined) the screen gave -0.1189%.
With O=C(O)C(F)(F)F.O=C(O)C(F)(F)F.c1cnc(N2CC3(CCN(Cc4cccnc4)C3)C2)nc1 the screen gave 1.664%.
With CC(C)c1noc(-c2ccc(NCC3CCCOC3)nc2)n1 (centres undefined) the screen gave -21.04% & -18.04%.
With COCC(=O)NC[C@]1(O)CN(Cc2ccc3c(c2)OCCO3)C[C@H]1O the screen gave 9.385%.
With [H][C@@]12CCN(Cc3ccc4c(c3)OCO4)C[C@]1(c1nnc(C)o1)CCO2 the screen gave -13.33%.
With Cc1c(CN2Cc3nccn3CC2c2ccccc2)cnn1C (centres undefined) the screen gave 1.925%.
With c1ccc2nc(N3CCOC(Cn4cncn4)C3)cnc2c1 (centres undefined) the screen gave -3.319%.
With Cc1cc(NC(=O)CN2CCn3c(nnc3C3CC3)C2)on1 the screen gave -1.887%.
With CC(=O)N1CCc2nc(N3CCCC3)nc(C)c2C1 the screen gave 7.942%.
With O=S(=O)(NCCc1c[nH]c2ccc(F)cc12)C1CCOCC1 the screen gave -23.25%.
With CN(C)C(=O)c1cc2c(nc1NCC1CC1)CCN(CC1CC1)CC2 the screen gave 3.246%.

Some entries from above, unchanged:

SMILES,Percent Effect
Cc1c(CN2Cc3nccn3CC2c2ccccc2)cnn1C (centres undefined),1.925
c1ccc2nc(N3CCOC(Cn4cncn4)C3)cnc2c1 (centres undefined),-3.319
Cc1cc(NC(=O)CN2CCn3c(nnc3C3CC3)C2)on1,-1.887
CN(Cc1ccncc1)C1COC2(CCN(Cc3ccco3)CC2)C1.O=C(O)C(F)(F)F.O=C(O)C(F)(F)F.O=C(O)C(F)(F)F (centres undefined),-4.623

From ChEMBL document CHEMBL3988442, “University of Dundee, Small-Polar-MMV Screening Library” (2021).